# These are yes or no findings as the source states them, for the method shown. In cells and extracts the contact can be indirect. Some entries that bind do so weakly or less than the wild type.
# Amino acid sequences for entries named in this document (tags omitted).
# UniProt O14744: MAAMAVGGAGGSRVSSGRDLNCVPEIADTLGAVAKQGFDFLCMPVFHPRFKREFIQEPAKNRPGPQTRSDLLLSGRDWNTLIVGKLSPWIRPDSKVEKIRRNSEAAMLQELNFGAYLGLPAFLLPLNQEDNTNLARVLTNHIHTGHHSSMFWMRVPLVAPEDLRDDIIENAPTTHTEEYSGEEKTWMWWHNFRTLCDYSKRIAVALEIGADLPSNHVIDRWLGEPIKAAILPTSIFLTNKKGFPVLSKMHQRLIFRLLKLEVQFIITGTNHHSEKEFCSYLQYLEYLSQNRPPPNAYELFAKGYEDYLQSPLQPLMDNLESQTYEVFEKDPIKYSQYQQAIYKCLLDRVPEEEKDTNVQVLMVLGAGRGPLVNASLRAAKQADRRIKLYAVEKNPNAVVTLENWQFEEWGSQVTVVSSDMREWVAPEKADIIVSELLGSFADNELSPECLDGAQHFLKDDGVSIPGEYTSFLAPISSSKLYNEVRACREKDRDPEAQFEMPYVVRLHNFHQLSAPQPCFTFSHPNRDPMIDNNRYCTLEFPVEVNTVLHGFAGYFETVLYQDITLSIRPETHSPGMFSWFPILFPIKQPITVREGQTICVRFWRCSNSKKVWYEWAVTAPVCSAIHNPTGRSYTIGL
# UniProt P19474: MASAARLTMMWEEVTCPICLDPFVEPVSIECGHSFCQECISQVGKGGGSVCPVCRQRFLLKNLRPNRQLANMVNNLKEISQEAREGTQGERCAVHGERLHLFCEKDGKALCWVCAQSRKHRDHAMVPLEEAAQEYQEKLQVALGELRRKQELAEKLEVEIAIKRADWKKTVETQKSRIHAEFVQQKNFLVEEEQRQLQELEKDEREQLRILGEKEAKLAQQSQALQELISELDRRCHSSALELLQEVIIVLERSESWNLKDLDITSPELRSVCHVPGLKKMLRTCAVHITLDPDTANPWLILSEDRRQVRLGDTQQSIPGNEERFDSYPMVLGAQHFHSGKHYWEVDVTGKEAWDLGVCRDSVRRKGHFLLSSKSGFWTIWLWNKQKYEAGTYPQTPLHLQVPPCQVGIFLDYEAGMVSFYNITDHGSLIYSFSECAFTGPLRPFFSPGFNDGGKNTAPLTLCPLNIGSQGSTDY
# Legend:
# [1] = target: Protein arginine methyltransferase 5 (PRMT5), endogenous in U2 OS cells (human (endogenous in U2 OS)) (UniProt O14744); test: co-IP; endogenous proteins in U2 OS lysate; precleared extract incubated with 5 ug antibody against PRMT5 or IgG overnight at 4°C, protein A beads, five washes with lysis buffer, Western blot
# Myc-VN155-PRMT5 = Myc-VN155-PRMT5 (UniProt O14744); test: split reporter; BiFC: Myc-VN155-PRMT5 and HA-VC155-TRIM21 cotransfected with Cerulean into U2 OS cells for 48 h; cells fixed, reconstituted Venus seen by confocal microscopy
Substance,binding [1],binding (Myc-VN155-PRMT5)
"TRIM21, endogenous in U2 OS cells (from UniProt P19474 1-475)",binds,–
HA-VC155-TRIM21 (from UniProt P19474 1-475),–,binds
